Results are given in words; binding and its absence hold for the method and conditions named. In cells and extracts the contact can be indirect. These calls come from enrichment with a bait or labelling near it, and not all partners need be listed. No binding means not detected with the bait.
B1: bile acyl-CoA synthetase, endogenous in human liver (enzyme, UniProt Q9Y2P5-1 1-690)
chain: MGVRQQLALLLLLLLLLWGLGQPVWPVAVALTLRWLLGDPTCCVLLGLAMLARPWLGPWVPHGLSLAAAALALTLLPARLPPGLRWLPADVIFLAKILHLGLKIRGCLSRQPPDTFVDAFERRARAQPGRALLVWTGPGAGSVTFGELDARACQAAWALKAELGDPASLCAGEPTALLVLASQAVPALCMWLGLAKLGCPTAWINPHGRGMPLAHSVLSSGARVLVVDPDLRESLEEILPKLQAENIRCFYLSHTSPTPGVGALGAALDAAPSHPVPADLRAGITWRSPALFIYTSGTTGLPKPAILTHERVLQMSKMLSLSGATADDVVYTVLPLYHVMGLVVGILGCLDLGATCVLAPKFSTSCFWDDCRQHGVTVILYVGELLRYLCNIPQQPEDRTHTVRLAMGNGLRADVWETFQQRFGPIRIWEVYGSTEGNMGLVNYVGRCGALGKMSCLLRMLSPFELVQFDMEAAEPVRDNQGFCIPVGLGEPGLLLTKVVSQQPFVGYRGPRELSERKLVRNVRQSGDVYYNTGDVLAMDREGFLYFRDRLGDTFRWKGENVSTHEVEGVLSQVDFLQQVNVYGVCVPGCEGKVGMAAVQLAPGQTFDGEKLYQHVRAWLPAYATPHFIRIQDAMEVTSTFKLMKTRLVREGFNVGIVVDPLFVLDNRAQSFRPLTAEMYQAVCEGTWRL
B2: B-cell receptor-associated protein 31, endogenous in human liver (protein, UniProt P51572-1 1-246)
chain: MSLQWTAVATFLYAEVFVVLLLCIPFISPKRWQKIFKSRLVELLVSYGNTFFVVLIVILVLLVIDAVREIRKYDDVTEKVNLQNNPGAMEHFHMKLFRAQRNLYIAGFSLLLSFLLRRLVTLISQQATLLASNEAFKKQAESASEAAKKYMEENDQLKKGAAVDGGKLDVGNAEVKLEEENRSLKADLQKLKDELASTKQKLEKAENQVLAMRKQSEGLTKEYDRLLEEHAKLQAAVDGPMDKKEE
B3: immediate early response 3 interacting protein 1, endogenous in human liver (protein, UniProt Q9Y5U9 1-82)
chain: MAFTLYSLLQAALLCVNAIAVLHEERFLKNIGWGTDQGIGGFGEEPGIKSQLMNLIRSVRTVMRVPLIIVNSIAIVLLLLFG
B4: transmembrane protein 14A, endogenous in human liver (protein, UniProt Q9Y6G1 1-99)
chain: MDLIGFGYAALVTFGSIFGYKRRGGVPSLIAGLFVGCLAGYGAYRVSNDKRDVKVSLFTAFFLATIMGVRFKRSKKIMPAGLVAGLSLMMILRLVLLLL
B5: signal sequence receptor, gamma (translocon-associated protein gamma), endogenous in human liver (protein, UniProt Q9UNL2-1 1-185)
chain: MAPKGSSKQQSEEDLLLQDFSRNLSAKSSALFFGNAFIVSAIPIWLYWRIWHMDLIQSAVLYSVMTLVSTYLVAFAYKNVKFVLKHKVAQKREDAVSKEVTRKLSEADNRKMSRKEKDERILWKKNEVADYEATTFSIFYNNTLFLVVVIVASFFILKNFNPTVNYILSISASSGLIALLSTGSK
B6: translocon associated protein (TRAP) alpha subunit, endogenous in human liver (protein, UniProt P43307 19-286)
chain: VLFRGGPRGLLAVAQDLTEDEETVEDSIIEDEDDEAEVEEDEPTDLVEDKEEEDVSGEPEASPSADTTILFVKGEDFPANNIVKFLVGFTNKGTEDFIVESLDASFRYPQDYQFYIQNFTALPLNTVVPPQRQATFEYSFIPAEPMGGRPFGLVINLNYKDLNGNVFQDAVFNQTVTVIEREDGLDGETIFMYMFLAGLGLLVIVGLHQLLESRKRKRPIQKVEMGTSSQNDVDMSWIPQETLNQINKASPRRLPRKRAQKRSVGSDE
B7: retention in endoplasmic reticulum 1, endogenous in human liver (protein, UniProt O15258 1-196)
chain: MSEGDSVGESVHGKPSVVYRFFTRLGQIYQSWLDKSTPYTAVRWVVTLGLSFVYMIRVYLLQGWYIVTYALGIYHLNLFIAFLSPKVDPSLMEDSDDGPSLPTKQNEEFRPFIRRLPEFKFWHAATKGILVAMVCTFFDAFNVPVFWPILVMYFIMLFCITMKRQIKHMIKYRYIPFTHGKRRYRGKEDAGKAFAS

Chains of the proteins cited; added tags and fusions are not shown.
UniProt O95342: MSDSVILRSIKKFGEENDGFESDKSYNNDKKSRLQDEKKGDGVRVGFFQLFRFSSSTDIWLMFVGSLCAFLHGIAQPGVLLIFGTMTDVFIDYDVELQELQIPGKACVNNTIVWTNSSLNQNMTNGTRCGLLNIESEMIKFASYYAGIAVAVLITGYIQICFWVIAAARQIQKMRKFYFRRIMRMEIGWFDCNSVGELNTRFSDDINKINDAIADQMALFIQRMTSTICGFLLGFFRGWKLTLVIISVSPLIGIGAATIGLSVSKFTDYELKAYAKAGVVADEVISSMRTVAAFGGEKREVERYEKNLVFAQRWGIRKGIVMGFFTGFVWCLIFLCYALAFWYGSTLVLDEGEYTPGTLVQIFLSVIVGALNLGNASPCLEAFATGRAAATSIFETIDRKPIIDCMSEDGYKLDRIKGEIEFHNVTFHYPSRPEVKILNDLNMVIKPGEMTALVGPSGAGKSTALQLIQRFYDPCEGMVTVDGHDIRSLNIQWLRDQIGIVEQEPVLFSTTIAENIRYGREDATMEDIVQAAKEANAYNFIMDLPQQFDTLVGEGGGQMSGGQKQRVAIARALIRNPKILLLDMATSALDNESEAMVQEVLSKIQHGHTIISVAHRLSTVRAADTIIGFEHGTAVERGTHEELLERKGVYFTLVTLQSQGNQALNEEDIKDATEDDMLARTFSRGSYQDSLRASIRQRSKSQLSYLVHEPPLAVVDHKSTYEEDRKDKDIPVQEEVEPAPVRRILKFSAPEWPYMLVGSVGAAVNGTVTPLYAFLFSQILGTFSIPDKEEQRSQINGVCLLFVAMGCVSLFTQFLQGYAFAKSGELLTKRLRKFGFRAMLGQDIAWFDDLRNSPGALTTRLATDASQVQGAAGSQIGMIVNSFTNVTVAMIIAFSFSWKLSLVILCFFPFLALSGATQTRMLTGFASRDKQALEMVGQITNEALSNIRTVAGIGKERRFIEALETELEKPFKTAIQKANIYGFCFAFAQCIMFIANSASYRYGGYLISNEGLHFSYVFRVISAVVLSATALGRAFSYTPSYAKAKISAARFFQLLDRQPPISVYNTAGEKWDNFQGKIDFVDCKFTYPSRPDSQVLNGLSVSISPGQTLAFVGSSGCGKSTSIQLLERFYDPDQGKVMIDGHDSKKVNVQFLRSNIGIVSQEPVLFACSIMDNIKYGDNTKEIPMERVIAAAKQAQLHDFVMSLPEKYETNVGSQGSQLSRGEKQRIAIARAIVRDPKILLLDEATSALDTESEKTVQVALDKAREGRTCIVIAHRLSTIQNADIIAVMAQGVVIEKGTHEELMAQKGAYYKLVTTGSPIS
UniProt O14745: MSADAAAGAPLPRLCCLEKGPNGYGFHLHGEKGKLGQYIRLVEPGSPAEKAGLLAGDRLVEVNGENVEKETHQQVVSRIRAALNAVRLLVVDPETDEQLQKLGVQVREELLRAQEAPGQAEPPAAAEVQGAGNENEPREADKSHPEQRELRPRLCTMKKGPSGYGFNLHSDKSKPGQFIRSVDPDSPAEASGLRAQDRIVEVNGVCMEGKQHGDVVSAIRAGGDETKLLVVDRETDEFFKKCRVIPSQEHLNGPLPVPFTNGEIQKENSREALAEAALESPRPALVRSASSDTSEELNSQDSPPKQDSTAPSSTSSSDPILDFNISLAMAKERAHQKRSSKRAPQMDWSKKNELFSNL
UniProt Q6UW68: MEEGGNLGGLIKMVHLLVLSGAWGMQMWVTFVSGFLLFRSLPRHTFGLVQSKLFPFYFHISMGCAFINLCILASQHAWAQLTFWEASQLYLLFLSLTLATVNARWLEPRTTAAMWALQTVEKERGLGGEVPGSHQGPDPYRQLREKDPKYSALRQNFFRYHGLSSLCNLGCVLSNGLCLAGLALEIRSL
UniProt O14975: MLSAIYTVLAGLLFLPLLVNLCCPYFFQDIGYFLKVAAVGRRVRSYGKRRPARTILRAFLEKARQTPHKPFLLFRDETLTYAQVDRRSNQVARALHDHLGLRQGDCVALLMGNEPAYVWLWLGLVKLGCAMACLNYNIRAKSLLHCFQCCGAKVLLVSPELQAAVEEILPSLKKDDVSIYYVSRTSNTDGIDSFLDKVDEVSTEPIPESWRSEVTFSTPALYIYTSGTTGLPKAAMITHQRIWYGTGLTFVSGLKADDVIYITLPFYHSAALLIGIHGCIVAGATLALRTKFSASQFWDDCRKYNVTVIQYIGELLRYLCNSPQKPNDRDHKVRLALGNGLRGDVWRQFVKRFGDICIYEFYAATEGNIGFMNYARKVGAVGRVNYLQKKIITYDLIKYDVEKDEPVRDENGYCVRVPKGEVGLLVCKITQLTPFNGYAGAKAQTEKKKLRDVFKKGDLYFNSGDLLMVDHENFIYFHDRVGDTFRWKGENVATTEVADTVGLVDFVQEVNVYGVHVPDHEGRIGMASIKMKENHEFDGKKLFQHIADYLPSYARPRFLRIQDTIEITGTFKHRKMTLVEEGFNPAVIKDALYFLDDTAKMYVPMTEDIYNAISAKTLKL
UniProt Q96HR9: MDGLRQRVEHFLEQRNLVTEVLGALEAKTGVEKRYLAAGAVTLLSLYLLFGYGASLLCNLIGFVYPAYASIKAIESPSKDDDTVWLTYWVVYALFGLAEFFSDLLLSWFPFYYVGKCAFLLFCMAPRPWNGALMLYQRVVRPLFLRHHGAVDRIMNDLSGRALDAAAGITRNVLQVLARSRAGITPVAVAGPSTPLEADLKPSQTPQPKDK

Molecular target: bile salt export pump (BSEP, ABCB11), endogenous in human liver (human (endogenous in human liver)) (UniProt O95342)
Experiment: affinity purification with mass spectrometry; BSEP immunoprecipitated with monoclonal antibody F-6 from crude canalicular membranes of human liver solubilised in 1% digitonin; shotgun MS/MS; control naive mouse IgG2a

Molecule | binding
NHERF1, endogenous in human liver (from UniProt O14745 1-358) | no binding

Molecular target: bile salt export pump (BSEP, ABCB11), endogenous in human liver (human (endogenous in human liver)) (UniProt O95342)
Experiment: as above
Remark: another data set of the same source

Molecule | binding
B1 | no binding (only solubilised with digitonin)

Molecular target: bile salt export pump (BSEP, ABCB11), endogenous in human liver (human (endogenous in human liver)) (UniProt O95342)
Experiment: affinity purification with mass spectrometry; BSEP immunoprecipitated with monoclonal antibody F-6 from crude canalicular membranes of human liver solubilised in 1% Triton X-100; shotgun MS/MS; control naive mouse IgG2a

Molecule | binding
transmembrane protein 205, endogenous in human liver (from UniProt Q6UW68 1-189) | binds
very long-chain acyl-CoA synthetase, endogenous in human liver (from UniProt O14975 1-620) (enzyme) | binds
NHERF1, endogenous in human liver (from UniProt O14745 1-358) | no binding
translocation associated membrane protein 1, endogenous in human liver (from UniProt Q15629-1 1-374) | binds
receptor expression-enhancing protein 6, endogenous in human liver (from UniProt Q96HR9 1-211) | binds
B2 | binds
B3 | binds
B4 | binds
B5 | binds
B6 | binds
B7 | binds
B1 | binds

Source: PMC4966956, “Analysis of the Bile Salt Export Pump (ABCB11) Interactome Employing Complementary Approaches” (PLoS ONE, 2016)
